{"sequences": {"note": "Protein sequences, listed by entry. Tags and fused reporters are not part of them. Lines headed by an entry give the natural chain unless they say otherwise; changes in a name come on top.", "UniProt P34253": "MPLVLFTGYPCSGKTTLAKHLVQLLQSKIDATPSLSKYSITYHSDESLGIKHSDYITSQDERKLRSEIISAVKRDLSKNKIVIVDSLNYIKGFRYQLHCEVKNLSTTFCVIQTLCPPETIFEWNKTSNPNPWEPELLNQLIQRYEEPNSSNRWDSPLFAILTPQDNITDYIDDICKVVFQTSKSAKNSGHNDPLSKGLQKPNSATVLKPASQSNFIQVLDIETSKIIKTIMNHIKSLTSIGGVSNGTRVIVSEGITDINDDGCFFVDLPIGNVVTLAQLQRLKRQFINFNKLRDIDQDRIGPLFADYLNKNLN"}, "source": "paper PMC11995267", "biological_target": "T1, Elp1-c-Myc (S. cerevisiae) (UniProt Q06706)", "T1 sequence": "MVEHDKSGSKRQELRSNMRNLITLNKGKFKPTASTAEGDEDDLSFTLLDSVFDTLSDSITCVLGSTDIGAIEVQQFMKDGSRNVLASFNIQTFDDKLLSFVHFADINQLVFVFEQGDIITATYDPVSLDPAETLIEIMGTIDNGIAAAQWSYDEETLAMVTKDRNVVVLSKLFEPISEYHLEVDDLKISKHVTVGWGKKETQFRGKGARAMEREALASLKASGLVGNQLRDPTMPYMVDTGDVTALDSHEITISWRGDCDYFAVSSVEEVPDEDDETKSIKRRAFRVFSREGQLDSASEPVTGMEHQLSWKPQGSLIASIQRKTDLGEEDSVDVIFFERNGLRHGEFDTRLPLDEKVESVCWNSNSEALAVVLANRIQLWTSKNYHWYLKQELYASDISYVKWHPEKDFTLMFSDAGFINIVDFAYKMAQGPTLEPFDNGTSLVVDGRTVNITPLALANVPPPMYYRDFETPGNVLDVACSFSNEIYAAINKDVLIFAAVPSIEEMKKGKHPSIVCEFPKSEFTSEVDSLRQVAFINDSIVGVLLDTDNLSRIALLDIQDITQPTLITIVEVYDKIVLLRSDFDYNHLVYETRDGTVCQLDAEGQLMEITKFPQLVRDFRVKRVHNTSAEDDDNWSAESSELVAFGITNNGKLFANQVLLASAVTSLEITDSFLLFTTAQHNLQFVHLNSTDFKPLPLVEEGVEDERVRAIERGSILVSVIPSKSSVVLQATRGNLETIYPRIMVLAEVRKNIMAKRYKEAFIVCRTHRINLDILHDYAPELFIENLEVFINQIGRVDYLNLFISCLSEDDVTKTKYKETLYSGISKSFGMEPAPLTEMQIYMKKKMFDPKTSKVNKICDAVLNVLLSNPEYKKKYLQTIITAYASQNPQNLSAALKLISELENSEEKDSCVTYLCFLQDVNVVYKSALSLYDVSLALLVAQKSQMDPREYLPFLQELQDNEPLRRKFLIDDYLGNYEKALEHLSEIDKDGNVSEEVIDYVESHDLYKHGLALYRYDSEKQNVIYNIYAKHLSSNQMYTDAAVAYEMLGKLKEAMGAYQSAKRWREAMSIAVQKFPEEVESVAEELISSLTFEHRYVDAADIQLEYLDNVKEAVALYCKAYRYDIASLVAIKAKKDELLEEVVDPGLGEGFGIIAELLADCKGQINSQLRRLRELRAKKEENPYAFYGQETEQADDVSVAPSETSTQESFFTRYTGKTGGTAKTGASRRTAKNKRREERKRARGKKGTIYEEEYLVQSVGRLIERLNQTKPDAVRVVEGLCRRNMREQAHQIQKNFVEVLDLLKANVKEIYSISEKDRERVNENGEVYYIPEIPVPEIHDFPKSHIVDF", "assay": "co-IP; Elp1-c-Myc immobilised on antibody-coupled Dynabeads; 8 mg total yeast protein in B60 buffer (50 mM HEPES-KOH pH 7.3, 60 mM KOAc), 4°C overnight; Kti12-HA detected by Western blot", "note": "No constants are given. Whether binding was seen depends on the method and setting. In cells and extracts the contact can be indirect. Binding can be weak; no strength is given. Tags and fused reporters may be left off the sequences shown.", "data": [{"substance": "Kti12-HA R291A (from UniProt P34253)", "values": [{"measurement": "binding", "result": "binds"}]}]}
